Drawing on paper PMC10257679, this text covers binding for 1 substance.

Amino acid sequences for entries named in this document (tags omitted).
UniProt P97471: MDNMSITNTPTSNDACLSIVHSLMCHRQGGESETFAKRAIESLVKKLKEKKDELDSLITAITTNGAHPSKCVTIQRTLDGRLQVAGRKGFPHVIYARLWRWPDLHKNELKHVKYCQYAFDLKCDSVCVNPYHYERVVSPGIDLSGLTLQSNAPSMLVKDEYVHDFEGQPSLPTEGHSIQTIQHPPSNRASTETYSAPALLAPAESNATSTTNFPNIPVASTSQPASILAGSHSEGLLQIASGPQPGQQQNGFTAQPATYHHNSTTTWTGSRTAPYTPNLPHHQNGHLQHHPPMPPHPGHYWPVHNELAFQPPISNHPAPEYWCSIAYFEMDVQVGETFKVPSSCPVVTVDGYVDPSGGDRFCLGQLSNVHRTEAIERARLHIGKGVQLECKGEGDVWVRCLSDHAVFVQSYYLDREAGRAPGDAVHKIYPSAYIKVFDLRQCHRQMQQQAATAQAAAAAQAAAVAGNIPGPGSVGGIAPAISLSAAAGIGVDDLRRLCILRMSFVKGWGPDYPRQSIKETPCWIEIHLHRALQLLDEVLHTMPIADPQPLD

The assay concerns the target T1, GST-SENP2^363–589 fusion protein segment (UniProt Q9HC62).
T1 sequence: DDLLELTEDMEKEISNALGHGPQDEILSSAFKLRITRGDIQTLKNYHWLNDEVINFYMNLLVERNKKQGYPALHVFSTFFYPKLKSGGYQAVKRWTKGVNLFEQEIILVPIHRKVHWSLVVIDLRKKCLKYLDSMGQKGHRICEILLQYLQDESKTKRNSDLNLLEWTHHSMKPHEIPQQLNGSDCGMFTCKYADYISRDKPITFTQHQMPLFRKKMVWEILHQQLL
The assay can be described thus: pull-down; about 290 µg of pathogenic Th17 lysate (25 mM HEPES pH 7.5, 150 mM NaCl, 1 mM EDTA, 1 mM EGTA, 0.5% Triton X-100, 1% NP-40 alternative) incubated with 10 µg GST-SENP2 363-589 at 4 °C overnight, then Glutathione Sepharose 4B beads at 4 °C for 3 h; Smad4 detected by immunoblotting; control: beads alone; only the target purified. (In general: Immunoblotting shows a protein as a band on a membrane.)

These are yes or no findings as the source states them, for the method shown. Binding seen in cells or lysates may run through a third protein. Some results given as binding are weak or reduced against the parent protein; the word gives no strength. Where a sequence is shown, tags or fusion partners need not be part of it.

For Smad4 (from UniProt P97471 1-551), the binding entry is on record as “binds”.
